Measured values from patent publication US20170233490A1.
Results are given in words; binding and its absence hold for the method and conditions named. Some binding calls cover weakened binding; strength is not graded here.

Sequences of proteins named here, by UniProt entry; tags and fusion partners are left off. A change or cut given only in a name is not applied to a line headed by its entry.
UniProt P21860: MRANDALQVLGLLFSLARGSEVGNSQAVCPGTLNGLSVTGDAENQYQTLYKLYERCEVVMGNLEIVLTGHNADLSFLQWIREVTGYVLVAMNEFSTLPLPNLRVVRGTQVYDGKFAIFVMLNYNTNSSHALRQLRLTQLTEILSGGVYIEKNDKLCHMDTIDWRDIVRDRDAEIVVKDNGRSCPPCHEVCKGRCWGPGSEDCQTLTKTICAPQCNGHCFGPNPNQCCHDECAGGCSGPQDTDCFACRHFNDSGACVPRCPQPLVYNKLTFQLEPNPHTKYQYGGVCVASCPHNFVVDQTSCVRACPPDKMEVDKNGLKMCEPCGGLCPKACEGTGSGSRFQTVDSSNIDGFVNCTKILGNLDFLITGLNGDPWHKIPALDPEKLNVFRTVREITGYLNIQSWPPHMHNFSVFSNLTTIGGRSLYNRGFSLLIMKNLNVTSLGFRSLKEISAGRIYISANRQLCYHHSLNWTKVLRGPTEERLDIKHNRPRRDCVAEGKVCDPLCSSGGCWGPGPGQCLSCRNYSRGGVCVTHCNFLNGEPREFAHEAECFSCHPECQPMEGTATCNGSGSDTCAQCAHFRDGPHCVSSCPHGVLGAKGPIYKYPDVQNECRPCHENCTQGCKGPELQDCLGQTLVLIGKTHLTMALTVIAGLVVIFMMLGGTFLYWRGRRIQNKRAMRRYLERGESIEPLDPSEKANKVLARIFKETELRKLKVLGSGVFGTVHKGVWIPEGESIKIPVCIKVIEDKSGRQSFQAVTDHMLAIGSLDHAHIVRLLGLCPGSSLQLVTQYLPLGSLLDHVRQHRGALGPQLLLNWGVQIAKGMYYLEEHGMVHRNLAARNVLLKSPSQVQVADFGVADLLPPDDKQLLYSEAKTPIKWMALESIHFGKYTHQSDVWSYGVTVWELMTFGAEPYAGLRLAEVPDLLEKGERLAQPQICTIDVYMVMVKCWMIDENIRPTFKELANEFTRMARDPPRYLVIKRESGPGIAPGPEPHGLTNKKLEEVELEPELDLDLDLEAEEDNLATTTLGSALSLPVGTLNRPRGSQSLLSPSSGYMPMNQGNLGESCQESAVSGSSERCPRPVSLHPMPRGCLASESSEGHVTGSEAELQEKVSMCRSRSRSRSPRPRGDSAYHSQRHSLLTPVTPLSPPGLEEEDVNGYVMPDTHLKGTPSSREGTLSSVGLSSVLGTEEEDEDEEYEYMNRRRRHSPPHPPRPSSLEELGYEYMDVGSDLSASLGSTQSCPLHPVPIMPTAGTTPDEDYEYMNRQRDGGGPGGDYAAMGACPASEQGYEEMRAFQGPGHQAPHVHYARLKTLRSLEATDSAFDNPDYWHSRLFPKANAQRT

T1: TtSlyD-FKBP-Her3
T1 sequence: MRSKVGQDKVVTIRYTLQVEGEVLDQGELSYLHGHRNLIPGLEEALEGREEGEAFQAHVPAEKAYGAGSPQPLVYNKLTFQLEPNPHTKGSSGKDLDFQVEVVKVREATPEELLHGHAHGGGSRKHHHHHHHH


How the values were obtained:
[1] = target: HER3 ECD-HRG complex (human) (UniProt P21860); test: SPR (Biacore B3000, 25 °C), antibody captured by anti-human Fc antibody; HER3-ECD/HRG1β complex (ECD3/HRG) in a 1:3 series up to 270 nM, 5 min injection, 10 min dissociation
TtSlyD-FKBP-Her3 = target: T1, TtSlyD-FKBP-Her3; test: SPR kinetic screening
[2] = target: HER3 ECD-HRG complex (human) (UniProt P21860); test: ribosome display panning of scFv on biotinylated, heregulin-activated Her3-ECD (100 nM)

Binder | binding [2] | further results
DIB-MoAb (monovalent antibody based on M-05-74) (antibody, V domains shown) VH: QVQLQQSGAELAKPGASVKMSCKTSGYTLTDYWIHWVKQRPGQGLEWIGYINPYTGYTESNQKFKDKATLTADKSSNTAYIQLSSLTSEDSAVYYCARPYYYGDYWGQGTTLTVSS VL: QIVLTQSPAIMSASPGERVTITCSASSSVSYMHWFQQKPGTSPKLLIYSTSNLASGVPARFSGSGSGTSYSLTISRMEAEDAATYYCQQRSSYPFTFGSGTKLEIK | – | binding [1]: binds
anti-HER3/HER4 antibody M-05-74 (antibody, V domains shown) VH: QVQLQQSGAELAKPGASVKMSCKTSGYTLTDYWIHWVKQRPGQGLEWIGYINPYTGYTESNQKFKDKATLTADKSSNTAYIQLSSLTSEDSAVYYCARPYYYGDYWGQGTTLTVSS VL: QIVLTQSPAIMSASPGERVTITCSASSSVSYMHWFQQKPGTSPKLLIYSTSNLASGVPARFSGSGSGTSYSLTISRMEAEDAATYYCQQRSSYPFTFGSGTKLEIK | – | binding (TtSlyD-FKBP-Her3): binds
scFv ribosome display construct VH-A/VL-B of humanized M-05-74 (scFv, V domains shown) VH: QVQLVQSGAELKKPGASVKVSCRTSGYTLTDYWIHWVRQAPGQGLEWMGYINPYTGYTESNQKFKDRVAMTRDASINTAYMELTSLRSDDTAVYYCARPYYYGDYWGQGTLVTVSS VL: EIVLTQSPSSLSASVGDRVTITCSASSSVSYMHWYQQKPGKAPKLLIYSTSNLASGVPSRFSGSGSGTDFTLTISSLQPEDFATYYCQQRSSYPFTFGGGTKVDIK | binds | –
scFv ribosome display construct VH-A/VL-E of humanized M-05-74 (scFv, V domains shown) VH: QVQLVQSGAELKKPGASVKVSCRTSGYTLTDYWIHWVRQAPGQGLEWMGYINPYTGYTESNQKFKDRVAMTRDASINTAYMELTSLRSDDTAVYYCARPYYYGDYWGQGTLVTVSS VL: EIVMTQSPSSLSASVGDRVTITCSASSSVSYMHWYQQKPGKAPKLLIYSTSNLASGVPSRFSGSGSGTDYTLTISSLQPEDFATYYCQQRSSYPFTFGQGTKLEIK | binds | –
